# Measured values reported in PubChem BioAssay AID588497 (NMMLSC, 2011).
# Out of some 360,000 compounds screened, about 780 (0.22%) were called active. This list was built around the results that the source calls inconclusive (neither active nor inactive); the mix of calls is not that of the screen. Rule as the data show it: active = inhibition above about 35% (passing the limit was not always enough); inconclusive = no clear call, values can overlap the other calls.
# Tested on: Botulinum neurotoxin type F light chain protease (Clostridium botulinum)
# Assay: BoNT/F light chain protease inhibitors, primary screen, biochemical, flow cytometry, MLPCN library (AID 588497); also: plate controls were buffer without enzyme for full effect and enzyme alone for no effect
# Conditions: Multiplex microsphere protease cleavage assay, at 10 µM, hits give high values
row,Compound,inhibition
1,Cn1ccc(=Nc2ccc(NC(=O)c3ccc(N=c4ccn(C)c5ccc([N+](=O)[O-])cc45)cc3)cc2)cc1,inconclusive: -122%
2,O=C(NNC(=O)c1ccccc1O)c1ccc(Br)cc1,inconclusive: 38.1%
3,CC(=O)Nc1cccc(C(=O)OCC(=O)N(c2ccccc2)C2CCS(=O)(=O)C2)c1 (stereo unspecified),inconclusive: 0.3%
4,CCN(c1ccccc1)S(=O)(=O)c1cc2c3c(c1)CCN3C(=O)CC2,inconclusive: -1.1%
5,COC(=O)[C@@H](NC(=O)NC1CCCCC1C)C(C)C (stereo partly specified),inconclusive: 67.9%
6,CCOC(=O)c1ccc(Nc2nc(C)nc3c2nnn3Cc2ccccc2)cc1,inconclusive: -17.5%
7,CCOP(=O)(OCC)/C(C#N)=C/c1ccoc1,inconclusive: 1.7%
8,COc1cccc(/C=C2\SC(=S)N(NS(=O)(=O)c3ccc(C)cc3)C2=O)c1OC,inconclusive: 12.3%
9,CNn1cnc2ccsc2c1=O,inconclusive: 20%
10,Cc1cccc(C)c1NC(=O)CN(C)C(=O)CC1Sc2ccccc2NC1=O (stereo unspecified),inconclusive: -4.2%
11,CCCOc1ccc(C2NC(=O)NC2=O)cc1 (stereo unspecified),inconclusive: -2.7%
12,CSC1=NC(NCCCO)c2c(sc3c2CC(C)(C)OC3)N1 (stereo unspecified),inactive: -1.7%
13,COc1cc2c(cc1OC)-c1cc(OCc3ccccc3Cl)nc(=O)n1CC2,inactive: -3.9%
14,CN(C)C(=O)CSc1nnc(CCCCCNC(=O)OC(C)(C)C)o1,inconclusive: -12.3%
15,COc1ccc(CNC(=O)CN(C(=O)CCC(=O)Nc2ccccn2)c2cc(C)ccc2C)cc1,inactive: -6.8%
16,O=C(NC1CCCc2ccccc21)C1CCCC1 (stereo unspecified),inconclusive: -12.5%
17,CCN(CC)c1nc2c(c(=O)[nH]c(=O)n2C)n1Cc1ccccc1Cl,inconclusive: -15.8%
18,CCCNC(=O)c1ccc(S(N)(=O)=O)cc1,inconclusive: 20.2%
19,O=C1CC(N2CCN(S(=O)(=O)c3ccccc3F)CC2)C(=O)N1c1ccccc1Cl (stereo unspecified),inconclusive: -3.7%
20,Cc1ccc(OCC(O)CN2CCOCC2)c(C)c1 (stereo unspecified),inconclusive: -13.5%
21,O=C(CN1CCCCCC1)Nc1ccc(Br)cn1,inconclusive: 34.3%
22,CCOc1ccc(-n2nnnc2SCC(=O)Nc2cccc(O)c2)cc1,inconclusive: -0.5%
23,Cc1ccc(OCCNc2cc(N3CCN(CCO)CC3)ccc2[N+](=O)[O-])cc1C,inactive: -3.3%

row,Compound,inhibition
1,O=C(O)CC1(CC(=O)NCc2ccc(C(F)(F)F)cc2)CCCCC1,inconclusive: -58.8%
2,O=C(NNS(=O)(=O)c1ccc(F)cc1)c1ccc(O)cc1,inconclusive: 32.8%
3,CCN(C(=O)COC(=O)c1cccc(S(=O)(=O)N2CCOCC2)c1)C1CCS(=O)(=O)C1 (stereo unspecified),inactive: 2.4%
4,O=C(Nc1cccc(F)c1)c1ccc2ncsc2c1,inconclusive: -16.2%
5,CCOc1c(C)cc(S(=O)(=O)NCc2ccccn2)c(C)c1C,inconclusive: 6%
6,CCN(CC)c1ccc(/C=N/NC(=O)OC)c(O)c1,inconclusive: -39.3%
7,CCCC1(C(=O)OC)NC(c2ccc(OC)c(OC)c2)C2C(=O)N(c3cccc(C(C)=O)c3)C(=O)C21 (stereo unspecified),inconclusive: 2.2%
8,O=C(O)COc1ccccc1C=NNC(=O)c1ccccc1NS(=O)(=O)c1cccs1,inactive: 2.9%
9,O=C(NNC(=O)C1CCCO1)c1ccc(Cl)cc1 (stereo unspecified),active: 36.9%
10,C=CCn1c(SCC(=O)N2c3ccccc3Sc3ccccc32)nnc1-c1ccco1,inconclusive: -48.2%
11,CN(C)/C=C(/C(=O)c1ccc(Cl)cc1Cl)S(=O)(=O)c1ccc(Cl)cc1,inactive: 7.6%
12,CCN(CC)CCn1c2c(c(SCC(=O)Nc3cc(C)on3)nc1=O)CCCC2,inconclusive: 0.6%
13,CCOc1ccc(NC(=O)CSc2nnc(Cn3cnc4ccccc43)n2C)cc1,inconclusive: 21%
14,C(=N\Nc1nccc(-c2cccnc2)n1)/c1ccccc1,inconclusive: -33.8%
15,O=C(Nc1nnc(-c2ccc(F)cc2)o1)c1ccc(S(=O)(=O)N2CCOCC2)cc1,inactive: -3.7%
16,COc1ccc(-c2cc3cc(OC)c(OC)cc3cn2)cc1OC,inconclusive: -1.5%
17,C=CCSc1n[nH]c(=O)n1-c1cccc(C(F)(F)F)c1,inconclusive: 38.5%
18,CCOc1ccc(N(Cc2ccc(C(=O)O)cc2)S(=O)(=O)c2ccc(C)cc2)cc1,inconclusive: -28.9%
19,COc1ccc(C(O)P(=O)(OC(C)C)OC(C)C)c(OC)c1 (stereo unspecified),inconclusive: -18.7%
20,CN(C(=O)COC(=O)CCC1CCCCC1)c1c(N)n(Cc2ccccc2)c(=O)[nH]c1=O,inactive: 0.8%
21,Cc1cccc(Nc2nc(N)nc(-c3oc4ccccc4c3C)n2)c1,inconclusive: 5.3%
22,Cc1[nH]n(C(N)=S)c(=O)c1N=Nc1ccc([N+](=O)[O-])cc1Cl,inconclusive: -20.6%
23,O=C1CSC(c2ccc([N+](=O)[O-])cc2)N1Cc1ccccc1 (stereo unspecified),inconclusive: 35.8%

# Single values from the results shown.
# Under inhibition, `Cc1cccc(Nc2nc(N)nc(-c3oc4ccccc4c3C)n2)c1` is entered as inconclusive: 5.3%
# Under inhibition, `CCN(C(=O)COC(=O)c1cccc(S(=O)(=O)N2CCOCC2)c1)C1CCS(=O)(=O)C1` (stereo unspecified) is entered as inactive: 2.4%
# Under inhibition, `CCOc1c(C)cc(S(=O)(=O)NCc2ccccn2)c(C)c1C` is entered as inconclusive: 6%
# Under inhibition, `CN(C)/C=C(/C(=O)c1ccc(Cl)cc1Cl)S(=O)(=O)c1ccc(Cl)cc1` is entered as inactive: 7.6%

# The list goes on:

row,Compound,inhibition
1,CCOCC(=O)Nc1cccc(Br)c1,inconclusive: -46.6%
2,O=C(NCc1ccccn1)c1nnc(Cc2ccc(Cl)cc2)o1,inactive: 0.7%
3,OC1(C#CCN2CCCC2)c2ccccc2-c2ccccc21,inconclusive: 27.3%
4,Brc1ccc(C2=CC(c3ccco3)n3nnnc3N2)cc1 (stereo unspecified),inconclusive: 8.8%
5,CSc1nc(NCc2ccco2)c2ccccc2n1,inconclusive: 9.7%
6,NC(=O)/C(=C\c1ccncc1)c1cccc2ccccc12,inconclusive: -22.9%
7,CN1CCN(C(=S)NC(CC(=O)c2ccccc2)c2ccccc2)CC1 (stereo unspecified),inconclusive: 8.1%
8,CC(C)(C)c1ccc(OC(=O)Nc2ccc(O)c(C(=O)O)c2)cc1,inconclusive: 8.4%
9,Cc1cc2oc3c(c(=O)c2cc1C)C(c1cccc(Br)c1)N(Cc1ccco1)C3=O (stereo unspecified),inactive: -1.4%
10,COc1ccc(/C=N/NC(=O)CN2CCCC2)cc1,inconclusive: 14.2%
11,CCN1CCN(c2ccc(S(=O)(=O)N3CCCCC3)cc2NC(=O)c2ccc([N+](=O)[O-])o2)CC1,inconclusive: -1.8%
12,CC(=O)Nc1nnc(-c2c(-c3ccccc3Cl)noc2C)o1,inconclusive: -70.6%
13,O=C1c2cccc(Sc3ccccc3)c2C(=O)c2c(Sc3ccccc3)cccc21,inconclusive: -160%
14,COC(=O)CCSC(=S)N1CCOCC1,inconclusive: -10.2%
15,S=C(Nc1ccccc1)Nc1ccccc1-n1cccc1,inconclusive: -35.9%
16,CCc1cccc(C)c1NC(=O)CC(C)(C)CC(=O)O,inconclusive: -67.6%
17,CCCCCCCCCCNC(=O)C(=O)Nc1ccccn1,inconclusive: -44.1%
18,CCOc1ccccc1NC(=O)C(c1ccccc1)N1CCN(CC(=O)N2CCCC2)CC1 (stereo unspecified),inactive: -10.2%
19,COc1cc(OC)c(OC)cc1/C=N/n1c(-c2n[nH]c3c2CCC3)n[nH]c1=S,inactive: 22.8%
20,CCOC(=O)C1CCN(C(=O)CSCCSCC(=O)N2CCC(C(=O)OCC)CC2)CC1,inactive: -0.8%
21,CCCc1cc(=O)oc2cc(OCc3ccc(C(=O)O)o3)ccc12,inconclusive: -23.5%
22,Cc1csc(SC(C)C(=O)Nc2ccc(Cl)cn2)n1 (stereo unspecified),inconclusive: -31.2%
23,CC(OC(=O)c1cccnc1Cl)C(=O)Nc1ccc2c(c1)OCO2 (stereo unspecified),inactive: -4.3%

row,Compound,inhibition
1,Cc1cc(C)nc(NC(=O)c2cnc3sccn3c2=O)n1,inactive: -4.9%
2,COc1ccc(C2C(C(=O)N3CCOCC3)=C(C)NC3=C2C(=O)CC(C)(C)C3)cc1O (stereo unspecified),inactive: -4%
3,COc1ccc(-c2nc(=S)c3c(n2Cc2cccnc2)CC(C)(C)OC3)cc1,inconclusive: -1.1%
4,COc1ccc(F)cc1S(=O)(=O)N1CCC(C(N)=O)CC1,inconclusive: -31.1%
5,COc1ccc(NC(=O)CN2C(=O)COc3ccccc32)cc1OC,inconclusive: 11.1%
6,COc1cc(C(=O)N/C(=C/c2ccc(F)cc2)C(=O)NC(C(=O)O)c2ccccc2)cc(OC)c1OC (stereo unspecified),inconclusive: 9.6%
7,O=C(Nc1ccc(F)cc1F)NC1CCN(Cc2c(F)cccc2Cl)CC1,inconclusive: -4%
8,O=C(C1CC1)N1CCc2sccc2C1c1ccc(Cl)cc1 (stereo unspecified),inconclusive: -50.5%
9,O=C1OCc2ccc(NC(=O)c3sccc3Cl)cc21,inconclusive: 66.2%
10,O=S(=O)(NCCc1ccccc1)c1ccc(Br)cc1,inconclusive: -16.6%
11,Cc1ccc(-n2nc(C)c(C(=O)Nc3cccc(C(=O)NC4CC4)c3)n2)c(C)c1,inactive: -8%
12,CC(C)N(C(=O)[C@H]1CC(CC(=O)NCC23CC4CC(CC(C4)C2)C3)C(=O)N2CCc3c([nH]c4ccccc34)[C@]12C)C(C)C (stereo partly specified),inactive: 0.5%
13,CC(/C=C/C=C/c1ccccc1)=N/NC(=O)C(O)c1ccccc1 (stereo unspecified),inconclusive: -34.9%
14,Cc1cccc(NS(=O)(=O)Cc2ccccc2)c1C,inconclusive: -11.4%
15,CCNS(=O)(=O)c1ccc(CCC(=O)N2CCCC2)cc1,inconclusive: -69.4%
16,Cc1ccc(S(=O)(=O)CC(=O)N(CCCN(C)C)c2nc3ccc(C)cc3s2)cc1,inconclusive: -7.8%
17,Cc1nn(-c2ccc(Br)cc2)c(=O)c2ccccc12,inconclusive: -6%
18,Cc1ccc2nc(SCC(=O)NCCc3ccccc3)nc(=O)n2c1,inconclusive: -1.8%
19,CC1(C)CC(NC(=O)c2ccc(Cl)cc2Cl)CC(C)(C)N1,inconclusive: 21%
20,COc1ccc(NS(=O)(=O)Cc2ccccc2)cc1OC,inactive: -2.1%
21,CCN(CC)CCCN(Cc1cc2cc3c(cc2[nH]c1=O)OCO3)C(=S)NC,active: 35.3%
22,O=C(CN1C(=O)C2C3C=CC(C3)C2C1=O)Nc1ccc2nccnc2c1 (stereo unspecified),inactive: -16.5%
